Patent US10155025B2, “Method for inhibiting or reducing transplant rejection by adminstration of interleukin-34” (INSERM (INSTITUT NATIONAL DE LA SANTÉ ET DE LA RECHERCHE …, priority 2014, dated 2018)
At least one structure is not confirmed: it was looked up by name or label, or the drawing left a doubt.

Tested on: heart allograft
Assay: Cardiac allograft survival, LEW-1W donors to LEW-1A recipients
Assay type: in vivo, rat
Settings: suboptimal dose of rapamycin alone, 14 days

Compound: CO[C@H]1C[C@@H]2CC[C@@H](C)[C@@](O)(O2)C(=O)C(=O)N2CCCC[C@H]2C(=O)O[C@H]([C@H](C)C[C@@H]2CC[C@@H](O)[C@H](OC)C2)CC(=O)[C@H](C)/C=C(\C)[C@@H](O)[C@@H](OC)C(=O)[C@H](C)C[C@H](C)/C=C/C=C/C=C/1C [rapamycin]
- extension of allograft survival: did not significantly extend allograft survival
